Results are given in words; binding and its absence hold for the method and conditions named. Binding seen in cells or lysates may run through a third protein. Some entries that bind do so weakly or less than the wild type.
Columns and labels:
[1] = molecular target: Flag-βTRCP1, expressed in 293T cells (UniProt Q9Y297); assay: co-IP; 293T cells transfected for 30 h, MG132 10 µM for 5 h; lysates in EBC buffer (50 mM Tris pH 8.0, 120 mM NaCl, 0.5% NP40, 1 mM DTT); antibodies on protein G beads or anti-HA beads, 4 h to overnight at 4 °C; in some panels Myc-Chk1 or Myc-Chk1^L449R co-expressed, HU, CHIR-124 or AZD7762 added
[2] = molecular target: endogenous βTRCP1 of 293T cells (human (endogenous in 293T)) (UniProt Q9Y297); assay: as above

Sequences of proteins named here, by UniProt entry; tags and fusion partners are left off. A change or cut given only in a name is not applied to a line headed by its entry. A line that says so, or that is headed by a name, gives the form on record, which may keep a tag or linker.
UniProt Q9Y297: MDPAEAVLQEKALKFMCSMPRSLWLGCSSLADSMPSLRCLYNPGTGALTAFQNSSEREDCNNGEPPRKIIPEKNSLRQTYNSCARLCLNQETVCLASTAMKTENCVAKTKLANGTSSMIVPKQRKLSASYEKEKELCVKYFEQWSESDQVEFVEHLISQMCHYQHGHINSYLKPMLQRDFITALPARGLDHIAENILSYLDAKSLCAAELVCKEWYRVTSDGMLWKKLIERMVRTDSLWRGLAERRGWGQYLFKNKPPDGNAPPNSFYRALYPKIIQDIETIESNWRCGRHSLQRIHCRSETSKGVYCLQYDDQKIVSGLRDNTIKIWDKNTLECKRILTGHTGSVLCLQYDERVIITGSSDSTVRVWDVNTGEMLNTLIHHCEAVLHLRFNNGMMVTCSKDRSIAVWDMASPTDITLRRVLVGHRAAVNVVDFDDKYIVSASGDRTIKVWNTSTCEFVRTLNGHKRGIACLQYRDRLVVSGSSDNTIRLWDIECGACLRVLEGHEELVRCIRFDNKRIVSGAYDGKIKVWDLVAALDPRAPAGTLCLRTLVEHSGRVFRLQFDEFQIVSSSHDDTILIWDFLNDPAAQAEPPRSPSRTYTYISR
UniProt Q9UM11: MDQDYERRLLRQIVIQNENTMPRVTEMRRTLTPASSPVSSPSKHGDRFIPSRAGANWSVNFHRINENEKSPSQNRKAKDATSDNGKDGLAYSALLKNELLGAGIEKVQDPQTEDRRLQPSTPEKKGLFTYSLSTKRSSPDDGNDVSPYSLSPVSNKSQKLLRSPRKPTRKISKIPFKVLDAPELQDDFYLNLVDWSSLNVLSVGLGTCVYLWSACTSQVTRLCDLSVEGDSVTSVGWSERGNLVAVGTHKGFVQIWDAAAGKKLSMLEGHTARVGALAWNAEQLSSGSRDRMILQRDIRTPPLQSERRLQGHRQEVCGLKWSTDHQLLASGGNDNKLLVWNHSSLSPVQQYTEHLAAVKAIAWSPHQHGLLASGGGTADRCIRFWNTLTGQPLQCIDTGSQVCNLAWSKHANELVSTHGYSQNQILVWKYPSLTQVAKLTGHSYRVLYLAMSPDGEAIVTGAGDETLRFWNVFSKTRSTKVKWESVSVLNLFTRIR
HA-Cdh1 SS137/138AA, expressed in 293T cells (Q9UM11, form named): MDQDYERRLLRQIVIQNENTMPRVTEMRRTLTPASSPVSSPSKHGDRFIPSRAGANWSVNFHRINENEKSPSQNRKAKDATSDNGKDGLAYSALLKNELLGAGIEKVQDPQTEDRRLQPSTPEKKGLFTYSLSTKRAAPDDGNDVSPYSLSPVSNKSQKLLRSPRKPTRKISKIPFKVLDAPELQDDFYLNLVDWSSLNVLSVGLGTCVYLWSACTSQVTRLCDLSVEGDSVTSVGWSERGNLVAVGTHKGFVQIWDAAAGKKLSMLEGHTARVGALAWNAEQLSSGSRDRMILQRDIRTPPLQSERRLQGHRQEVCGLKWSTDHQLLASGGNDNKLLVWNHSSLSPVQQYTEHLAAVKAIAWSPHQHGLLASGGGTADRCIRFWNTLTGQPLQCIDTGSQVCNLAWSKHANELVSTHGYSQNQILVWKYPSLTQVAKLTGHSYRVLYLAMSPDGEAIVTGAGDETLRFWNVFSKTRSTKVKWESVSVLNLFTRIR

Row | binding [1] | binding [2] | Substance
1 | binds | binds | HA-Cdh1 (wild type), expressed in 293T cells (from UniProt Q9UM11 1-496)
2 | – | binds | HA-Cdh1 SS137/138AA, expressed in 293T cells (from UniProt Q9UM11 1-496)

From article PMC7188793
